The amount applied is not stated for every result.

Here are results for three molecules from paper PMC7318222, “A Family of Water‐Immiscible, Dipolar Aprotic, Diamide Solvents from Succinic Acid” (Chemsuschem, 2020).

The data set concerns human U2-OS cells. The experiment in a line: CALUX panel of 18 in vitro reporter gene assays (overall). The format is cell-based. Conditions: of 18 CALUX assays.
Regarding `CCCCN(CC)C(=O)CCC(=O)N(CC)CCCC` [EBSA, N,N′‐diethyl‐N,N′‐dibutylsuccindiamide], the “number of active assays” value was 2.

For `CCCCN(C)C(=O)CCC(=O)N(C)CCCC` [MBSA, N,N′‐dimethyl‐N,N′‐dibutylsuccindiamide], the “number of active assays” value stood at 4.

As for `CCCCN(CCCC)C(=O)CCC(=O)N(CCCC)CCCC` [TBSA, N,N,N′,N′‐tetrabutylsuccindiamide], the “number of active assays” value amounted to 2.
